No constants are given. Whether binding was seen depends on the method and setting. Some results given as binding are weak or reduced against the parent protein; the word gives no strength.
Biological target: human Gemin2 (12-280)-Mxe intein-His6 (human) (UniProt O14893)
Experiment: co-purification of co-expressed proteins; bacterial co-expression; human: Ni-NTA and chitin beads by the Mxe intein-His6 on Gemin2, then Superdex 200

The chains behind the UniProt entries cited, without tags or fusion partners. Residues count along the entry.
UniProt O14893, residues 12-280: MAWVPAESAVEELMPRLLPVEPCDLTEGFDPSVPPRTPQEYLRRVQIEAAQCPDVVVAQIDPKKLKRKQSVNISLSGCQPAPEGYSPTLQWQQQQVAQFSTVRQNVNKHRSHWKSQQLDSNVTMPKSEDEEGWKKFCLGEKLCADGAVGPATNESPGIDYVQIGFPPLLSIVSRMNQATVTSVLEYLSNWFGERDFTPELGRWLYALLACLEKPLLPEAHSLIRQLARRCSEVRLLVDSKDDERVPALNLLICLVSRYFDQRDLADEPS
UniProt Q16637: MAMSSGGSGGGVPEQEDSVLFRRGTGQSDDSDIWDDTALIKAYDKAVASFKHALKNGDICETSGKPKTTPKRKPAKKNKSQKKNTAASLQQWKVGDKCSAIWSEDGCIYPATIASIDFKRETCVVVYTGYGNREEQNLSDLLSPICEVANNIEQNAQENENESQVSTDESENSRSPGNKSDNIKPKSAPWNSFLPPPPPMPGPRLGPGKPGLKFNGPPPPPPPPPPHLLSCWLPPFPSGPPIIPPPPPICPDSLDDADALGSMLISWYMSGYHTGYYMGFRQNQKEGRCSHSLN

## human SMN (residues 1-294) (from UniProt Q16637 1-294)
  binding: binds
